Data on 23 targets can be found in the supplement of paper PMC11732987, “Enantioselective OTUD7B fragment discovery through chemoproteomics screening and high-throughput optimisation” (Communications Chemistry, 2025).

Some of the results follow. The data scatter; read single values as rough.

Compound in assay [1]: ClCC(=O)N[C@@H]1CCCc2ccccc12
As to the kind of experiment: log2 mean competition ratio of IA-DTB cysteine labelling (DMSO/compound) (log2 ratio); higher = stronger cysteine engagement by compound. To be noted: treatment time: 4 h, cell line lysate: HEK293T. Here is the method:
(§1)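 IA-DTB competitive cysteine chemoproteomics in HEK293T RIPA lysate. Lysates were treated with compound 29 or 30 at 50 or 200 µM for 4 h, then IA-DTB (500 µM, 1 h), trypsin-digested, NeutrAvidin-enriched and analysed by diaPASEF. Competition ratio = intensity DMSO / intensity compound (n=4 treated, n=64 DMSO); binding: mean log2 CR ≥ 1 and p ≤ 0.05 plus QC filters. Target is the cysteine site.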

Compound in assay [2]: ClCC(=O)N[C@H]1CCCc2ccccc12
Described as above. As to conditions: treatment time: 4 h, cell line lysate: HEK293T. Here is the method: as §1

Consider CHTF8 C83, for which the “log2 mean competition ratio” value in assay [1] (50 µM) was -0.0673; in assay [1] (200 µM) it was 0.132; in assay [2] (50 µM) it was -0.0153; in assay [2] (200 µM), -0.053.

With CLP1 C338 (UniProt Q92989), the “log2 mean competition ratio” value is -0.223 in assay [1] (50 µM), 0.208 in assay [1] (200 µM), -0.251 in assay [2] (50 µM) and -0.0701 in assay [2] (200 µM).

Regarding CNN2 C175 (UniProt Q99439), the “log2 mean competition ratio” value is 0.559 in assay [1] (50 µM), 0.0717 in assay [1] (200 µM), 0.371 in assay [2] (50 µM) and 0.053 in assay [2] (200 µM).

As to COPA C673 (UniProt P53621), the “log2 mean competition ratio” value is 0.0085 in assay [1] (50 µM), -0.143 in assay [1] (200 µM), 0.432 in assay [2] (50 µM) and -0.0933 in assay [2] (200 µM).

On to CHM C187 (UniProt P24386), for which the “log2 mean competition ratio” value in assay [1] (50 µM) was -0.139; in assay [1] (200 µM) it was -0.211; in assay [2] (50 µM), -0.981; in assay [2] (200 µM), 0.0172.

On to CLUH C214, for which the “log2 mean competition ratio” value in assay [1] (50 µM) is 0.129; in assay [1] (200 µM), 0.351; in assay [2] (50 µM) it was -0.623; in assay [2] (200 µM) it was -0.286.

Take CKAP2 C562 (UniProt Q8WWK9): the “log2 mean competition ratio” value was -0.18 in assay [1] (50 µM), 0.0372 in assay [1] (200 µM), -0.283 in assay [2] (50 µM) and 0.0565 in assay [2] (200 µM).

As to CHD8 C2300 (UniProt Q9HCK8), the entries for the “log2 mean competition ratio” value in assay [1] (50 µM), in assay [2] (50 µM) and in assay [2] (200 µM) were -0.569, -0.43 and -0.272, respectively.

As for CPLANE1 C1074, the “log2 mean competition ratio” value in assay [1] (50 µM) is -0.185; in assay [1] (200 µM), 0.119; in assay [2] (50 µM), -0.261; in assay [2] (200 µM), -0.0328.

For CNST C268 (UniProt Q6PJW8), the “log2 mean competition ratio” value in assay [1] (50 µM) is 0.0302; in assay [1] (200 µM) it was 0.298; in assay [2] (50 µM), -0.209; in assay [2] (200 µM) it was 0.0173.

As for CKMT1B C179, the “log2 mean competition ratio” value in assay [1] (50 µM) was -1.05; in assay [1] (200 µM), -2.76; in assay [2] (50 µM), -0.881; in assay [2] (200 µM) it was -2.14.

With CHD7 C2324 (UniProt Q9P2D1), the results for the “log2 mean competition ratio” value in assay [1] (200 µM), in assay [2] (50 µM) and in assay [2] (200 µM) were -0.469, 0.309 and -0.0866, respectively.

Regarding CLGN C511 (UniProt O14967), the “log2 mean competition ratio” value in assay [1] (50 µM) was -0.133; in assay [1] (200 µM), 0.0816; in assay [2] (50 µM), -0.143; in assay [2] (200 µM), 0.177.

On to CKAP5 C1946 (UniProt Q14008), for which the “log2 mean competition ratio” value is -0.0614 in assay [1] (50 µM), 0.0367 in assay [1] (200 µM), 0.0172 in assay [2] (50 µM) and 0.0849 in assay [2] (200 µM).

Regarding CNBD2 C535, the “log2 mean competition ratio” value in assay [1] (50 µM) is -0.181; in assay [1] (200 µM), 0.13; in assay [2] (50 µM) it was -0.469; in assay [2] (200 µM), 0.177.

Turning to COLEC12 C371, the “log2 mean competition ratio” value in assay [1] (50 µM) is -0.0683; in assay [1] (200 µM), -0.0458; in assay [2] (50 µM), 0.168; in assay [2] (200 µM) it was 0.202.

On to CPD C720 (UniProt O75976), for which the “log2 mean competition ratio” value is 0.108 in assay [1] (50 µM), 0.276 in assay [1] (200 µM), 0.224 in assay [2] (50 µM) and 0.219 in assay [2] (200 µM).

In the case of CLK2 C180 (UniProt P49760), the “log2 mean competition ratio” value in assay [1] (50 µM) was -0.0934; in assay [1] (200 µM) it was -0.0793; in assay [2] (50 µM) it was -0.248; in assay [2] (200 µM), -0.0506.

In the case of CHORDC1 C86 (UniProt Q9UHD1), the “log2 mean competition ratio” value in assay [1] (50 µM) was -0.188; in assay [1] (200 µM), -0.188; in assay [2] (50 µM), 0.244; in assay [2] (200 µM) it was -0.0181.

Regarding CRBN C205 (UniProt Q96SW2), the “log2 mean competition ratio” value in assay [1] (50 µM) is 0.29; in assay [1] (200 µM) it was -0.0733; in assay [2] (50 µM) it was -0.328; in assay [2] (200 µM) it was -0.2.

For CLUH C899, the “log2 mean competition ratio” value is 0.0362 in assay [1] (50 µM), -0.022 in assay [1] (200 µM), -0.174 in assay [2] (50 µM) and 0.0694 in assay [2] (200 µM).

With CHPT1 C386 (UniProt Q8WUD6), the “log2 mean competition ratio” value in assay [1] (50 µM) was 0.258; in assay [1] (200 µM) it was -0.297; in assay [2] (50 µM) it was -0.149; in assay [2] (200 µM), -0.415.

As for CLK3 C321 (UniProt P49761), the “log2 mean competition ratio” value in assay [1] (50 µM) was -0.0113; in assay [1] (200 µM), 0.116; in assay [2] (50 µM), 0.287; in assay [2] (200 µM) it was -0.00487.
